The campaign covered roughly 2,000 compounds. About 190 (9.5%) were called active. Not shown: some 14% with an inconclusive outcome.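 Rule for the calls: active = fitted activation curve crossing 40% at a concentration no higher than the sample's top valid tested dose; inconclusive = flat fitted curve at 30% to 70% activation, or poor curve fit; inactive = signal decrease, flat curve within 30%, or the rest.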 Most of the strongest results are missing from this list.
experiment: HSF-1 reporter activators over prolonged exposure, confirmation, cell-based, mouse, luciferase, cherry-pick, dose (AID 602296); conditions: NIH3T3-HGL HSF-1 response element luciferase, 48 h; at 26 µM (top of the series) unless noted;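 note: test compounds applied by themselves with no MG132 co-treatment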

activation, inactive:
CN1c2ccccc2C(O)=C(C(=S)Nc2ccc(Cl)cc2)S1(=O)=O -26.5%, CN1C(=O)C2(c3ccccc31)N(C)CC(c1ccccn1)C21SC(=S)N(Cc2ccco2)C1=O (centres undefined) -66.3%, COc1ccc(-c2cn[nH]c2-c2ccc(OCc3ccc([N+](=O)[O-])cc3)cc2O)cc1OC -39.6%, CC1=CC(C)(C)NC(=S)N1c1cccc(C)c1 -12.8%, CCN(CC)S(=O)(=O)c1ccc(C)c(NC(=S)Nc2cccc(S(=O)(=O)N3CCCCCC3)c2)c1 -53.3%, CCn1c2ccccc2c2cc(NC(=O)CSc3nnc(-c4cccc(OC)c4)n3N)ccc21 -37.1%, Cc1nc(Sc2ccc(Br)cc2)c(C#N)c(C)c1[N+](=O)[O-] -87.9%, COC(=O)C1C(=O)C2=C(CC1C)NC(C)=C(C(=O)OCc1ccc(OC)cc1)C2c1ccc(C)o1 (centres undefined) -8.89%, Cc1ccn2c(C(=O)N/N=C\c3ccccc3[N+](=O)[O-])c(C)nc2c1 4.21%, N#CCC(=O)Nc1ccc(C(=O)OCC(=O)Nc2ccccc2Sc2ccccc2)cc1 -9.43%, COc1ccc(N(CC(=O)NCCC2=CCCCC2)S(=O)(=O)c2ccccc2)cc1 -11.1%, CC(C)(C)NC(=O)c1ccc2c3c(cccc13)CC2 4.29%, CC(=O)NCCC(=O)Nc1nc(-c2cccs2)c(-c2cccs2)s1 9.96%, CC(=O)n1c2c(c3ccccc31)OC(N)=C(C#N)C2c1cccc(Cl)c1Cl (centres undefined) 7.42%, COc1cc(C2NC(=O)NC(C)=C2C(=O)OC2CCCCC2)cc(Cl)c1O (centres undefined) -9.39%, COc1ccc(C(=O)/C=C2/C(=O)Nc3ccccc32)cc1OC 14.5%, Cc1ccc(Cl)cc1N1CCN(C2CCCCC2NS(=O)(=O)c2ccccc2)CC1 (centres undefined) 3.93%, O=C(CCCSc1nc2ccccc2[nH]1)N1CCN(c2ccc([N+](=O)[O-])cc2)CC1 -50.4% [at 12 µM], COc1cc(OC)c(N(C)S(=O)(=O)c2cccc(C(=O)Nc3nnc(C4CC4)s3)c2)cc1Cl -3.17%, CC(=O)C1=C(C)NC2(O)c3ccccc3C(=O)C12O (centres undefined) -9.25%, COc1cc(C2C(C(=O)c3cc4ccccc4o3)=C(O)C(=O)N2c2cc(C)on2)cc(OC)c1OC (centres undefined) 4.2%, COc1cccc(/C=C2\N=C(SC)SC2=O)c1OC 12.8%, O=C(Nc1cccc(Cl)c1)C1CCCN(S(=O)(=O)c2ccc(F)cc2)C1 (centres undefined) -0.929%, O=C(c1nnsc1S(=O)c1ccc(Cl)cc1)N1CCOCC1 (centres undefined) -104%, Cc1nc2ccccc2n1CC(O)COCC1CC=CCC1 (centres undefined) -34.1%, COc1ccc2c(c1)-c1c(sn(-c3ccccc3)c1=S)C(C)(C)N2 -74.9%, CCOc1ccc(N2C(=O)/C(=C\c3ccc(O)c(OC)c3)S(=O)(=O)C2c2cccc([N+](=O)[O-])c2)cc1 (centres undefined) -19.8%, COc1ccc(-n2c(SCc3ccc([N+](=O)[O-])cc3)nnc2-c2ccc(C)cc2)cc1 -39.7%, Oc1c(Br)cc(Br)cc1C=Nc1cccc2ncccc12 -4.96%, Oc1c(C(c2ccccn2)N2CCOCC2)ccc2cccnc12 (centres undefined) -44%, CCOC(=O)c1c(NC(C)=O)sc2c1CCC(C=NCCCN(CC)CC)=C2Sc1ccccc1 13%, Cc1ccc2c(c1)c(C)c(C)n2CC(O)Cn1nc(C)c(Br)c1C (centres undefined) -92.5%, O=C1/C(=N\S(=O)(=O)c2cccs2)C([n+]2cccc(Cc3ccccc3)c2)=C([O-])c2ccccc21 -48.6%, Cc1ccc(N=C2NC(=O)CS2)cc1 -15.4%, CCc1ccc(NC(=O)CSc2nc3n[nH]c(C)c3c(=N)n2-c2cccc(OC)c2)cc1 -49.1%, COC(=O)c1cc(S(=O)(=O)C(C)C)c(S(C)=O)s1 (centres undefined) -10.3%, COc1cc(C2CC(c3cccnc3)=NN2c2ccc(F)cc2)cc(OC)c1OC (centres undefined) -5.22%, CN(C)CCN1C(=O)C2C(C(=O)Nc3cc(Cl)cc(Cl)c3)C3C=CC2(O3)C1C(=O)NC1CCCCC1 (centres undefined) -7.89%, CCN(CC)S(=O)(=O)c1cccc(C(=O)OCC(=O)N2CC(=O)Nc3ccccc32)c1 4.57%, CCOC(=O)c1sc2c(c1C)C(c1cccs1)C1=C(CCCC1=O)N2 (centres undefined) -78.9%, COc1ccc(OC)c(NC(=O)CNC(c2ccccc2)c2ccccc2)c1 -71.9%, O=C(CCC(=O)N1CCN(c2ccc(O)cc2)CC1)c1ccc(Br)cc1 3.02%, Cc1cc(C)c(C(=O)/C=C/c2cccc3ccccc23)c(=O)[nH]1 7.58% [at 6 µM], NC(=O)c1nsc(C(=O)N(c2ccccc2)C(C(=O)NCC2CCCO2)c2cccs2)c1N (centres undefined) -3.85%, N#CC1=C(N)N2C(=C(C#N)C13CCCCC3)SC1CCCCC12O (centres undefined) -12.5% [at 12 µM], Cc1c(C(=O)OCC2CCCO2)[nH]c2c1C(=O)CC(c1ccco1)C2 (centres undefined) -6.77%, CCOC(=O)Cc1nnc(Nc2cccc(C)c2)c2ccccc12 -10.6%, CC(Cc1ccc(O)c(O)c1)C(C)Cc1ccc(O)c(O)c1 (centres undefined) -2.89%, O=C(COC(=O)/C=C/c1cccc([N+](=O)[O-])c1)NCc1ccco1 -2.07%, O=C(c1ccc2c(=O)n3c(nc2c1)CCCCC3)N1CCN(C(c2ccccc2)c2ccccc2)CC1 -37.2%, C=C1CCC[C@]2(C)C[C@H]3OC(=O)C(CNC(CC)CO)[C@H]3CC12 (some centres undefined) -28.1%, CN1CCN(C(c2ccc(Cl)cc2)c2cc(Cl)c3cccnc3c2O)CC1 (centres undefined) -88.1%, O=[N+]([O-])c1c(NCCCO)cc(Sc2ccc(Cl)cc2)c2nonc12 -103%, CCOc1ccc2ncc(S(=O)(=O)c3ccc(C)cc3)c(N3CCC4(CC3)OCCO4)c2c1 -75.3%
